Results reported in the supplement of paper PMC10849652.
Some of the results follow.

Protein sequences, listed by entry. Tags and fused reporters are not part of them. Lines headed by an entry give the natural chain unless they say otherwise; changes in a name come on top.
UniProt Q9UPT9: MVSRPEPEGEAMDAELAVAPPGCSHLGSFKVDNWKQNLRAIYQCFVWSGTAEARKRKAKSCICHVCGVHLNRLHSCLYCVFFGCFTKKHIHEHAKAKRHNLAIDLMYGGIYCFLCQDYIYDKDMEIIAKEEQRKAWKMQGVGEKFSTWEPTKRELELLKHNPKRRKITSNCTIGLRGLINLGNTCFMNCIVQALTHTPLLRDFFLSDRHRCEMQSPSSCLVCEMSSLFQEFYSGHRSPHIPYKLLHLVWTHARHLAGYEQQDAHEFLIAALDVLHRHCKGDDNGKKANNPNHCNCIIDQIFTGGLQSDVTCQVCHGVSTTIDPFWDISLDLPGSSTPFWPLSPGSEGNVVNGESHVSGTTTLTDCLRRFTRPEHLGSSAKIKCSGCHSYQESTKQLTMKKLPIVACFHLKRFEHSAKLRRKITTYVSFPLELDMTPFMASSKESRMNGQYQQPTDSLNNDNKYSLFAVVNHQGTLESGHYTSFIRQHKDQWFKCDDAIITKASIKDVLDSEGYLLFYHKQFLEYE
UniProt Q8NBZ7: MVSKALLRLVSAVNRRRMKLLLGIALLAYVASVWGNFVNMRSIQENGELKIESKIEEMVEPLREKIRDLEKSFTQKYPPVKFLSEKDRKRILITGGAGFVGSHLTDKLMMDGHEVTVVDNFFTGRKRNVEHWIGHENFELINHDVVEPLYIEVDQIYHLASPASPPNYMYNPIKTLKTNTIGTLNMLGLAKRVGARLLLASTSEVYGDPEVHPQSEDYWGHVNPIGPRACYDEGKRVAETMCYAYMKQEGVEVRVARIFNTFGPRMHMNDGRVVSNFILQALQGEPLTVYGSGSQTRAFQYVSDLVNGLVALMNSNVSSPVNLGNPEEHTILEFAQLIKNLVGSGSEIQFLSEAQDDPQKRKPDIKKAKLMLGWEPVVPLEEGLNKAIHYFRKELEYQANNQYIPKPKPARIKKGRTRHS
UniProt O94966: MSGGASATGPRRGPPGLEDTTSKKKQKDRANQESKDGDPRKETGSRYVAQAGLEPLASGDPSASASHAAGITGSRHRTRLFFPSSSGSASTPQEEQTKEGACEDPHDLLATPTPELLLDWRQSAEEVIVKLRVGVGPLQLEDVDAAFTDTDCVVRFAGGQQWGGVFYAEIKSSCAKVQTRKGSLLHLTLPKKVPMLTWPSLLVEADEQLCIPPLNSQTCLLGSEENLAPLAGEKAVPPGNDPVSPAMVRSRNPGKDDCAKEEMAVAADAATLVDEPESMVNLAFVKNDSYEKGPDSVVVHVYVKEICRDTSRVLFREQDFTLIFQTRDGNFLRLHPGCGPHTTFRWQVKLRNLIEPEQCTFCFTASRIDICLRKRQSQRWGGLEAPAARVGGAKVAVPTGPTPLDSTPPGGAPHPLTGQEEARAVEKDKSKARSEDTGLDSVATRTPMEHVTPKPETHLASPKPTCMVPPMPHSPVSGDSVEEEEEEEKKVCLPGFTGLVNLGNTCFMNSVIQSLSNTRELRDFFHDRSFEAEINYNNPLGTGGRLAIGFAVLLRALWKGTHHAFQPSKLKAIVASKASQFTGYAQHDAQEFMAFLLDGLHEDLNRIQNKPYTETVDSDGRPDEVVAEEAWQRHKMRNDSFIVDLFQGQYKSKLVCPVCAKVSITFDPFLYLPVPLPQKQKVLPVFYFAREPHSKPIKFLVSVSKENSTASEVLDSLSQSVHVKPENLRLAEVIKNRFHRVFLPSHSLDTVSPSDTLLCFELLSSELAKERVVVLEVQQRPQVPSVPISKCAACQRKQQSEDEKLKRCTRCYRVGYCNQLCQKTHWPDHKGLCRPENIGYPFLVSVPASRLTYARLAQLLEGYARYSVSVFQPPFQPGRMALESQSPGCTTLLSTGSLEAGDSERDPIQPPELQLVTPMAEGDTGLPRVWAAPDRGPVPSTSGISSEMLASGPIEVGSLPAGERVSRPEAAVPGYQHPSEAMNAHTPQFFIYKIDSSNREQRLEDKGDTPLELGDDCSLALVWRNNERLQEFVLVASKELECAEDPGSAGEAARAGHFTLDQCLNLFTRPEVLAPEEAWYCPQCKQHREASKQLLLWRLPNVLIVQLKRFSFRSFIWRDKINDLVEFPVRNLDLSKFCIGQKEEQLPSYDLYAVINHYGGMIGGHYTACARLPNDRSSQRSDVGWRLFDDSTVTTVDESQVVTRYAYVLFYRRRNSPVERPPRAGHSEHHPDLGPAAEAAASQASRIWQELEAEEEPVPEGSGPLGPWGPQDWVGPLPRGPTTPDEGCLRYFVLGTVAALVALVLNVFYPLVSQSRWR
UniProt Q86T82: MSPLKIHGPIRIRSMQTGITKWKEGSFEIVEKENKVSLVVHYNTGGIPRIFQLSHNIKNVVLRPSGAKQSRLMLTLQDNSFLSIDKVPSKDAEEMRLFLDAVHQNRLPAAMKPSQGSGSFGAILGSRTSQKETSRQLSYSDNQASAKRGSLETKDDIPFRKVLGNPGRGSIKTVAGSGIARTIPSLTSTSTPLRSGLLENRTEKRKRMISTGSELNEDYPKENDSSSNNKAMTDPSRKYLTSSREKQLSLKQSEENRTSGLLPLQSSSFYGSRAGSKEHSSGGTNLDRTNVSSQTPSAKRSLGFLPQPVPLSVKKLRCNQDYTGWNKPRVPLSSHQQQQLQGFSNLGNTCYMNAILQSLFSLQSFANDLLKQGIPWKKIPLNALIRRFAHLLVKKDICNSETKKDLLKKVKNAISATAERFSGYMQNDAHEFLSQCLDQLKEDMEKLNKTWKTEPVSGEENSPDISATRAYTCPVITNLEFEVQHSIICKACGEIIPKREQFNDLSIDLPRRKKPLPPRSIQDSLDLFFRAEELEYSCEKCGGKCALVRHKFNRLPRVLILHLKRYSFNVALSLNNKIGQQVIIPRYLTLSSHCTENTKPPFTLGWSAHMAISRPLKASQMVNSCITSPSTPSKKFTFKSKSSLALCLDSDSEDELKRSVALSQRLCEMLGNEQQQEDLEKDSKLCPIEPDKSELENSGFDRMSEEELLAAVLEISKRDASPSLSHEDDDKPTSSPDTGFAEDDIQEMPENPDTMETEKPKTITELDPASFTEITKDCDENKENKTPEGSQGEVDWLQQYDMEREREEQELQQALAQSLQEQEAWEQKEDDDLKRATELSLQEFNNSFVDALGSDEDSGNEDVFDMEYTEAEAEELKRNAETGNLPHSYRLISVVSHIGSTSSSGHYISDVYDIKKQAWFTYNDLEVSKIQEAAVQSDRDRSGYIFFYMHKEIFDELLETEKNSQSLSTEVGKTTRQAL
UniProt P45880: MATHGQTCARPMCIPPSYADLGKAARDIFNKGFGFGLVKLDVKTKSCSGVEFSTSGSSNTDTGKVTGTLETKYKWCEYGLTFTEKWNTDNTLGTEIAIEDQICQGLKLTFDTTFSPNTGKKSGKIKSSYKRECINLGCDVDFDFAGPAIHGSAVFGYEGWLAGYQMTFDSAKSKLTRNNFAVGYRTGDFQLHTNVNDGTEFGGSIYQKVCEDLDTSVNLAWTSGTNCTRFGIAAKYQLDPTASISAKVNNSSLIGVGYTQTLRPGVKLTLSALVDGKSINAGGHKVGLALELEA
UniProt Q70CQ3: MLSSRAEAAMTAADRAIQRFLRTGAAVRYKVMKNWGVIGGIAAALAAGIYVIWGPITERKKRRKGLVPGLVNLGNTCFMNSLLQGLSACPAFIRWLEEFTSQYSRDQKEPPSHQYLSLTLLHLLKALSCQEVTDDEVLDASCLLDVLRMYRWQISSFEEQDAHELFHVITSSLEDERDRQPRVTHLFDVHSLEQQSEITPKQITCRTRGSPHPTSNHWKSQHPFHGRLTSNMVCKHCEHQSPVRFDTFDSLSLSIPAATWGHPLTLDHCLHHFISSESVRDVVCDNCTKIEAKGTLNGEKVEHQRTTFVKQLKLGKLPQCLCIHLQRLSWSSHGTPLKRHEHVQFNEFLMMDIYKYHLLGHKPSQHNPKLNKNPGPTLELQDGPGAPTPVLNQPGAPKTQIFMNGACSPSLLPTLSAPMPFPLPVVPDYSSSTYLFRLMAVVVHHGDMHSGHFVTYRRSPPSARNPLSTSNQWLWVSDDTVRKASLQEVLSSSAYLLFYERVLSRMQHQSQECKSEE
UniProt P21796, whole entry, looked up: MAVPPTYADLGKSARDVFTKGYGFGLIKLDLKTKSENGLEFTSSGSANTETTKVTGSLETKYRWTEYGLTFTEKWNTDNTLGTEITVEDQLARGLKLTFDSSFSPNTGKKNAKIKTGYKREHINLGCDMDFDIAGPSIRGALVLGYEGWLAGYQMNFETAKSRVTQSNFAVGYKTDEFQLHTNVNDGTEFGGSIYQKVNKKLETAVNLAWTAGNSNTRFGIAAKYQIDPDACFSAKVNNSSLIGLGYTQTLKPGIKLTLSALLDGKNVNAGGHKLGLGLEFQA
UniProt Q9Y277: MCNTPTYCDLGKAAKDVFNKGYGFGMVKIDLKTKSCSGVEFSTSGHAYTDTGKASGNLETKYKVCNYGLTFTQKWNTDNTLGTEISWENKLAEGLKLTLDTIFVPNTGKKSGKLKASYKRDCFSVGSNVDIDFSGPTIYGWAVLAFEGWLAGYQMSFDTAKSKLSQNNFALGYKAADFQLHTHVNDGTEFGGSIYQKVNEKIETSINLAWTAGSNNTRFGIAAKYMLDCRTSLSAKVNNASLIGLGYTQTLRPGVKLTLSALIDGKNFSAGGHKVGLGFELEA
UniProt O75385: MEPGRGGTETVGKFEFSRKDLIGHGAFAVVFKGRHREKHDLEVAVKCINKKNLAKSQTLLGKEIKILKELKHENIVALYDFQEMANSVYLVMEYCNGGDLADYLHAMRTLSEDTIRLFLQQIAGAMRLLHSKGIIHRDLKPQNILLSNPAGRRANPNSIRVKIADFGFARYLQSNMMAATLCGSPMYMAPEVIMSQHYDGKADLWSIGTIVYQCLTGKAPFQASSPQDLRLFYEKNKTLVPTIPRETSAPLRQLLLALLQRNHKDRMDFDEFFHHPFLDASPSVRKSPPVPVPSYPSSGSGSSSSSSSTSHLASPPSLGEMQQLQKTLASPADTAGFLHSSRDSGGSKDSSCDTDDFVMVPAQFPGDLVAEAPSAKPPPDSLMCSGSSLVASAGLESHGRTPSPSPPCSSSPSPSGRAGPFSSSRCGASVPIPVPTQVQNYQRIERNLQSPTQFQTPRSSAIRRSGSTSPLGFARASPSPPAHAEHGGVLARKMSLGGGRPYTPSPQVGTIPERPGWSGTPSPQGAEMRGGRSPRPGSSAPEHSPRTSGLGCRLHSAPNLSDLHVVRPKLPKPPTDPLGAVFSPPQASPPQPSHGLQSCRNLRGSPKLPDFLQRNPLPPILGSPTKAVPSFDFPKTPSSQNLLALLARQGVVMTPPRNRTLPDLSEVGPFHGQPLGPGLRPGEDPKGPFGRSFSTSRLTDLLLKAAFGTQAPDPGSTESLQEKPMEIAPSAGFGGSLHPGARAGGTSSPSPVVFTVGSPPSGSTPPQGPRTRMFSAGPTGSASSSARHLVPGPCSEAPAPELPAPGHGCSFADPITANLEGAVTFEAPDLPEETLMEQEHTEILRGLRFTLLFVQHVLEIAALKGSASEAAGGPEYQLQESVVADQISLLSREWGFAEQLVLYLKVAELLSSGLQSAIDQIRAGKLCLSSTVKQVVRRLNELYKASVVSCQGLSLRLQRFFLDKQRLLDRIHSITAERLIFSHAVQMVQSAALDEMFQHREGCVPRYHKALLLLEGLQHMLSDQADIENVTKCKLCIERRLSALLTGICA
UniProt P52735: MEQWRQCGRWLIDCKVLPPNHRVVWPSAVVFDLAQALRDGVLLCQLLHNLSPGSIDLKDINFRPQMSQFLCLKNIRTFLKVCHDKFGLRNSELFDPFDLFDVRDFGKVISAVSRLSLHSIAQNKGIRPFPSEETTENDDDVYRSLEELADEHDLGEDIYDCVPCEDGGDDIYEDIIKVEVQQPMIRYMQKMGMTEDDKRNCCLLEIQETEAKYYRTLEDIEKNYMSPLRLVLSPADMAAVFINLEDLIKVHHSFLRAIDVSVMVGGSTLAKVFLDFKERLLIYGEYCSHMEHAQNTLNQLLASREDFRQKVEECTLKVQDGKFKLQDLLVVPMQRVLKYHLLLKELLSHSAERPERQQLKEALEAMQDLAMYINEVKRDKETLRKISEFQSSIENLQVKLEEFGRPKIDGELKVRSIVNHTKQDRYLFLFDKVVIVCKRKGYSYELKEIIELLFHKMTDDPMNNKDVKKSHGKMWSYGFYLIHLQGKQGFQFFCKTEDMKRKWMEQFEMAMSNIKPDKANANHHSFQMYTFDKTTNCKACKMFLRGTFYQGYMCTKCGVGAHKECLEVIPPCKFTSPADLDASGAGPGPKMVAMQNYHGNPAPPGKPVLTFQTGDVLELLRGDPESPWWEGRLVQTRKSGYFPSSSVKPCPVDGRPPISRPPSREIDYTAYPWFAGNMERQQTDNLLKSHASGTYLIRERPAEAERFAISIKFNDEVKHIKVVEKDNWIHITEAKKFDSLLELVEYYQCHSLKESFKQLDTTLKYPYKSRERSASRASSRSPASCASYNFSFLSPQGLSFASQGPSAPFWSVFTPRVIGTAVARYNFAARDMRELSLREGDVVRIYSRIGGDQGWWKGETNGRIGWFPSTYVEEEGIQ

What was measured:
Test in all cases: log2 fold change, soluble protein after heating vs DMSO (PISA); higher = thermal stabilisation; K562 lysate, 10 uM; active = over 0.2 and 3.5 SD of the protein, either way, in both replicates (recomputed)
ibrutinib = compound: C=CC(=O)N1CCC[C@@H](n2nc(-c3ccc(Oc4ccccc4)cc3)c3c(N)ncnc32)C1 [ibrutinib]
Procedure, shortened: (§1)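 Values give the log-two fold change in thermal stability against solvent controls, from duplicates. Crude K562 extract at 1 mg/mL protein, made by dounce homogenisation in PBS pH 7.4 with 1 mM MgCl2, was treated with 10 μM compound for 30 min. After 3 min heating across 48°C-58°C, aliquots were pooled, adjusted to 0.5% NP-40 at 4°C and centrifuged at 21,000xg for 90 min. The supernatant was measured by TMTpro 16plex LC-MS/MS with channel sums equalised.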

[1] = compound: CC(=O)c1cnc2ccc(-c3cc(Cl)c(O)c(Cl)c3)nc2c1N[C@H]1CC[C@H](CN(C)C)CC1
Procedure, shortened: as §1

[2] = compound: CC(C)C1=C2N=C(C=C(N2N=C1)NCC3=CC=CC=C3)NCCCCCCN
Procedure, shortened: as §1

[3] = compound: CC1=CC=C(C=C1)SC2=C3C=C(SC3=CN=C2)C(=O)N
Procedure, shortened: as §1

ralimetinib = compound: CC(C)(C)Cn1c(N)nc2ccc(-c3[nH]c(C(C)(C)C)nc3-c3ccc(F)cc3)nc21 [ralimetinib]
Procedure, shortened: as §1

[4] = compound: CC(C)(O)CC(=O)NCCn1ccc2ncnc(Nc3ccc(Oc4cccc(C(F)(F)F)c4)c(Cl)c3)c21
Procedure, shortened: as §1

[5] = compound: CC1=C(C(CC(=O)N1)C2=CC=C(C=C2)C(F)(F)F)C(=O)NC3=C(C=C4C(=C3)C=NN4)F
Procedure, shortened: as §1

[6] = compound: CC1=C(C2=C(C=C1)C(=O)C3=CC=CC=C3N2CCCN)C
Procedure, shortened: as §1

[7] = compound: CC1=C(C=C(C=C1)NC(=O)C2=CC(=CC=C2)C(C)(C)C#N)NC3=CC4=C(C=C3)N=CN(C4=O)C
Procedure, shortened: as §1

[8] = compound: CC1=C(C=C(C=C1)NC(=O)C2=CC(=CC=C2)N(C)C)NC(=O)C3=CC=C(C=C3)O
Procedure, shortened: as §1

Measured: log2 fold change

USF3 (UniProt Q68DE3)
inactive: ibrutinib 0.001 | [1] -0.048 | [2] 0.113 | [3] -0.143

USP22 (UniProt Q9UPT9)
inactive: ibrutinib -0.031 | ralimetinib 0.023 | [4] 0.006 | [2] 0.027 | [5] -0.057 | [6] -0.034 | [7] 0.065 | [8] 0.056

UXS1 isoform 2 (UniProt Q8NBZ7)
inactive: ibrutinib 0.007 | [1] 0.096 | ralimetinib -0.039 | [4] -0.046 | [2] 0 | [6] 0.112 | [7] -0.027 | [8] -0.019 | [3] 0.03

USP12 (UniProt O75317)
inactive: [1] 0.047 | ralimetinib -0.101 | [4] -0.39 | [2] -0.122 | [5] 0.028 | [7] 0.15 | [8] 0.233 | [3] -0.134

VCPKMT (UniProt Q9H867)
inactive: ibrutinib -0.131 | [2] -0.246 | [7] -0.011

USP40 isoform 3 (UniProt Q9NVE5)
inactive: ralimetinib 0.016 | [4] 0.212 | [2] 0.163 | [5] 0.066 | [6] -0.029 | [7] 0.054 | [8] -0.076

URB2 (UniProt Q14146)
inactive: [1] -0.066 | ralimetinib 0.025 | [4] -0.091 | [5] 0.145 | [6] -0.054 | [7] -0.012 | [8] -0.03 | [3] -0.057

USP19 isoform 4 (UniProt O94966)
inactive: [1] 0.013 | ralimetinib -0.096 | [4] -0.06 | [2] 0.054 | [6] -0.1 | [8] 0.038 | [3] -0.147

USP37 (UniProt Q86T82)
inactive: [7] 0.038

VDAC2 isoform 2 (UniProt P45880)
inactive: [1] 0.007 | ralimetinib -0.004 | [4] -0.03 | [2] 0.01 | [5] -0.007 | [6] 0.008 | [7] 0.03 | [8] -0.017 | [3] -0.002

USP33 (UniProt Q8TEY7)
inactive: ralimetinib 0.097 | [4] -0.07 | [5] 0.009 | [6] -0.109 | [7] -0.155 | [8] 0.005

UQCRB (UniProt E5RHG9)
inactive: [6] -0.051

UNKL (UniProt E9PDK2)
inactive: ibrutinib -0.191 | [6] -0.086 | [7] 0.025

VEGFA isoform 14 (UniProt P15692)
inactive: [7] -0.036

UQCR10 (UniProt Q9UDW1)
inactive: [1] 0.014 | ralimetinib -0.01 | [4] 0.034 | [2] 0.037 | [5] -0.017 | [6] -0.029 | [7] 0.074 | [8] -0.008 | [3] 0.046

USP15 isoform 3 (UniProt Q9Y4E8)
inactive: [1] 0.037 | [6] 0 | [7] -0.049 | [3] -0.06

Copied from above (two entries):
UNKL (UniProt E9PDK2)
inactive: ibrutinib -0.191 | [6] -0.086 | [7] 0.025

VEGFA isoform 14 (UniProt P15692)
inactive: [7] -0.036

(cont.)

USB1 (UniProt Q9BQ65)
inactive: [1] 0.132 | ralimetinib 0.081 | [4] -0.169 | [2] 0.115 | [5] 0.037 | [6] 0.016 | [7] 0.073 | [8] -0.075 | [3] 0.159

VASN (UniProt Q6EMK4)
inactive: ralimetinib 0.332 | [4] 0.172 | [2] -0.004 | [6] -0.255 | [8] -0.295

USP30 (UniProt Q70CQ3)
inactive: ralimetinib -0.003 | [4] 0.024 | [2] 0.031 | [6] 0.051 | [7] 0.021 | [8] 0.045

URB1 (UniProt O60287)
inactive: [1] -0.214 | ralimetinib -0.013 | [4] -0.019 | [2] -0.059 | [5] -0.043 | [6] -0.071 | [7] 0.007 | [8] 0.002 | [3] 0.293

VDAC1 (UniProt P21796)
inactive: [1] 0.017 | ralimetinib -0.008 | [4] -0.041 | [2] -0.008 | [5] -0.021 | [6] -0.009 | [7] 0.011 | [8] -0.013 | [3] 0.009

VDAC2 (UniProt Q5JSD1)
inactive: [1] -0.01 | ralimetinib 0.01 | [4] -0.061 | [2] -0.031 | [5] -0.02 | [6] -0.048 | [7] 0.031 | [8] 0.043 | [3] -0.074

UCP2 (UniProt P55851)
inactive: ralimetinib 0.091 | [4] -0.081 | [5] 0.073 | [7] -0.045 | [8] -0.1

VDAC3 (UniProt Q9Y277)
inactive: [1] 0.01 | ralimetinib -0.006 | [4] -0.023 | [2] 0.008 | [5] -0.039 | [6] -0.007 | [7] 0.042 | [8] -0.029 | [3] 0.013

ULK1 (UniProt O75385)
inactive: [1] -0.02 | ralimetinib -0.285 | [4] -0.1 | [2] 0.055 | [6] -0.029 | [7] -0.022 | [8] 0.306 | [3] -0.086

VAV2 (UniProt P52735)
inactive: [1] 0.04 | [6] -0.366 | [3] 0.046
